# Test results from the supplement of paper PMC8728848.
# This is one part of the list.
# B1: PX14379D-pdi-530-26-530 (Parabacteroides distasonis) (protein)
# chain: DETVYDKLPADDFGQSTAELNALIGNSHNTMKKFWTEYMHLSECSGSMAVTPTRRGGDWYDGGQYREIYMHTWTSQTSRVKSAWKAATEAIGTCNEAIRKLQNSEILTEEEKAQDVADLRGVRAFWIYVMMDYWGNIPLLTEFHPTDKVFPGNSSRQEVFDWLIQEVEEIKDICPPATTENYGSFTQGAAYSLLAKLYLNAEAWGVTFSGNAYQKVIDNCDKVMAMGYILEPNWKDNFSVTNENSKEAILAATFSSSDTGNDGNVKNELHNNTLHYKDYLSLGITASGTWNGICAQPEYVRLFDEEDARLDGTFLTGLMIDKSTGKPIMTDHNNELNHTIDVNMIPGMEYDGTNWSAVEQHDGARCFKWEFASDLTSSMGNDFHIFRLADIYLMKAEALLRGGGSVSEATALVNTIRERGYGNSDHNYATVTLKEVQLERRLELAWEVYSRQDDIRFGCFTTGMWPQSNCERKADDYLKLLPVSQDAWQVNPNLKQNPGYAAFSK
# Key:
# Experiment in all cases: glycan array binding signal (z-score within array); higher = stronger binding
# Conditions in all cases: glycan notation: IUPAC condensed, linker removed
# Fuc(a1-2)Gal = target: Fuc(a1-2)Gal
# In short: (§1)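 Glycan array data were curated from 3228 arrays in the Consortium for Functional Glycomics database and kept only where the protein sequence was available. Glycan names were converted to IUPAC-condensed notation, and columns mapping to the same glycan were averaged. The binding signal is a within-array Z-score, averaged across arrays of the same protein sequence at different concentrations or buffers and across linkers. Negative Z-scores can be read as non-binding.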
# Fuc(a1-2)Gal(b1-3)GalNAc = target: Fuc(a1-2)Gal(b1-3)GalNAc
# In short: as §1
# [1] = target: Fuc(a1-2)Gal(b1-3)GalNAc(a1-3)[Fuc(a1-2)]Gal(b1-4)Glc
# In short: as §1
# [2] = target: Fuc(a1-2)Gal(b1-3)GalNAc(a1-3)[Fuc(a1-2)]Gal(b1-4)GlcNAc
# In short: as §1
# [3] = target: Fuc(a1-2)Gal(b1-3)GalNAc(b1-3)Gal
# In short: as §1
# [4] = target: Fuc(a1-2)Gal(b1-3)GalNAc(b1-3)Gal(a1-4)Gal(b1-4)Glc
# In short: as §1
# [5] = target: Fuc(a1-2)Gal(b1-3)GalNAc(b1-4)[Neu5Ac(a2-3)]Gal(b1-4)Glc
# In short: as §1
# Fuc(a1-2)Gal(b1-3)GlcNAc = target: Fuc(a1-2)Gal(b1-3)GlcNAc
# In short: as §1
# [6] = target: Fuc(a1-2)Gal(b1-3)GlcNAc(b1-2)Man(a1-3)[Fuc(a1-2)Gal(b1-3)GlcNAc(b1-2)Man(a1-6)]Man(b1-4)GlcNAc(b1-4)GlcNAc
# In short: as §1
# [7] = target: Fuc(a1-2)Gal(b1-3)GlcNAc(b1-2)Man(a1-3)[Fuc(a1-2)Gal(b1-3)GlcNAc(b1-2)Man(a1-6)]Man(b1-4)GlcNAc(b1-4)[Fuc(a1-6)]GlcNAc
# In short: as §1
# [8] = target: Fuc(a1-2)Gal(b1-3)GlcNAc(b1-3)Gal(b1-4)Glc
# In short: as §1
# [9] = target: Fuc(a1-2)Gal(b1-3)GlcNAc(b1-3)GalNAc
# In short: as §1
# [10] = target: Fuc(a1-2)Gal(b1-3)GlcNAc(b1-3)[Fuc(a1-2)Gal(b1-3)GlcNAc(b1-6)]GalNAc
# In short: as §1
# [11] = target: Fuc(a1-2)Gal(b1-3)GlcNAc(b1-3)[Gal(b1-4)GlcNAc(b1-6)]Gal(b1-4)Glc
# In short: as §1
# [12] = target: Fuc(a1-2)Gal(b1-3)GlcNAc(b1-3)[Neu5Ac(a2-6)Gal(b1-4)GlcNAc(b1-6)]Gal(b1-4)Glc
# In short: as §1
# [13] = target: Fuc(a1-2)Gal(b1-3)GlcNAc6S
# In short: as §1
# [14] = target: Fuc(a1-2)Gal(b1-3)[Fuc(a1-4)]GlcNAc
# In short: as §1
# [15] = target: Fuc(a1-2)Gal(b1-3)[Fuc(a1-4)]GlcNAc(b1-2)Man(a1-3)[Fuc(a1-2)Gal(b1-3)[Fuc(a1-4)]GlcNAc(b1-2)Man(a1-3)]Man(b1-4)GlcNAc(b1-4)GlcNAc
# In short: as §1
# [16] = target: Fuc(a1-2)Gal(b1-3)[Fuc(a1-4)]GlcNAc(b1-2)Man(a1-3)[Fuc(a1-2)Gal(b1-3)[Fuc(a1-4)]GlcNAc(b1-2)Man(a1-6)]Man(b1-4)GlcNAc(b1-4)[Fuc(a1-6)]GlcNAc(b1-4)[Fuc(a1-6)]GlcNAc
# In short: as §1
# [17] = target: Fuc(a1-2)Gal(b1-3)[Fuc(a1-4)]GlcNAc(b1-3)[Fuc(a1-3)[Gal(b1-4)]GlcNAc(b1-6)]Gal(b1-4)Glc
# In short: as §1
# [18] = target: Fuc(a1-2)Gal(b1-3)[Fuc(a1-4)]GlcNAc(b1-3)[Gal(b1-4)GlcNAc(b1-6)]Gal(b1-4)Glc
# In short: as §1
# Fuc(a1-2)Gal(b1-4)Glc = target: Fuc(a1-2)Gal(b1-4)Glc
# In short: as §1
# Fuc(a1-2)Gal(b1-4)Glc6S = target: Fuc(a1-2)Gal(b1-4)Glc6S
# In short: as §1
# Fuc(a1-2)Gal(b1-4)GlcNAc = target: Fuc(a1-2)Gal(b1-4)GlcNAc
# In short: as §1
# [19] = target: Fuc(a1-2)Gal(b1-4)GlcNAc(b1-2)Man
# In short: as §1
# [20] = target: Fuc(a1-2)Gal(b1-4)GlcNAc(b1-2)Man(a1-3)[Fuc(a1-2)Gal(b1-4)GlcNAc(b1-2)Man(a1-6)]Man(b1-4)GlcNAc(b1-4)GlcNAc
# In short: as §1
# [21] = target: Fuc(a1-2)Gal(b1-4)GlcNAc(b1-2)Man(a1-3)[Fuc(a1-2)Gal(b1-4)GlcNAc(b1-2)Man(a1-6)]Man(b1-4)GlcNAc(b1-4)[Fuc(a1-6)]GlcNAc
# In short: as §1
# [22] = target: Fuc(a1-2)Gal(b1-4)GlcNAc(b1-2)[Fuc(a1-2)Gal(b1-4)GlcNAc(b1-4)]Man(a1-3)[Fuc(a1-2)Gal(b1-4)GlcNAc(b1-2)Man(a1-6)]Man(b1-4)GlcNAc(b1-4)GlcNAc
# In short: as §1
# [23] = target: Fuc(a1-2)Gal(b1-4)GlcNAc(b1-3)Gal(b1-4)GlcNAc
# In short: as §1
# [24] = target: Fuc(a1-2)Gal(b1-4)GlcNAc(b1-3)Gal(b1-4)GlcNAc(b1-2)Man(a1-3)[Fuc(a1-2)Gal(b1-4)GlcNAc(b1-3)Gal(b1-4)GlcNAc(b1-2)Man(a1-6)]Man(b1-4)GlcNAc(b1-4)GlcNAc
# In short: as §1
binder,measurement,setting,value
B1,glycan array binding signal (z-score),Fuc(a1-2)Gal,-0.058
same,glycan array binding signal (z-score),Fuc(a1-2)Gal(b1-3)GalNAc,-0.542
same,glycan array binding signal (z-score),[1],0.054
same,glycan array binding signal (z-score),[2],-1.42
same,glycan array binding signal (z-score),[3],-0.081
same,glycan array binding signal (z-score),[4],-0.695
same,glycan array binding signal (z-score),[5],-0.701
same,glycan array binding signal (z-score),Fuc(a1-2)Gal(b1-3)GlcNAc,-0.334
same,glycan array binding signal (z-score),[6],0.9
same,glycan array binding signal (z-score),[7],-0.29
same,glycan array binding signal (z-score),[8],-0.909
same,glycan array binding signal (z-score),[9],-0.824
same,glycan array binding signal (z-score),[10],-0.372
same,glycan array binding signal (z-score),[11],-0.564
same,glycan array binding signal (z-score),[12],0.567
same,glycan array binding signal (z-score),[13],0.696
same,glycan array binding signal (z-score),[14],-0.322
same,glycan array binding signal (z-score),[15],-0.663
same,glycan array binding signal (z-score),[16],-0.008
same,glycan array binding signal (z-score),[17],0.774
same,glycan array binding signal (z-score),[18],0.951
same,glycan array binding signal (z-score),Fuc(a1-2)Gal(b1-4)Glc,0.266
same,glycan array binding signal (z-score),Fuc(a1-2)Gal(b1-4)Glc6S,-0.652
same,glycan array binding signal (z-score),Fuc(a1-2)Gal(b1-4)GlcNAc,-0.18
same,glycan array binding signal (z-score),[19],-0.612
same,glycan array binding signal (z-score),[20],0.755
same,glycan array binding signal (z-score),[21],-0.233
same,glycan array binding signal (z-score),[22],0.565
same,glycan array binding signal (z-score),[23],-0.043
same,glycan array binding signal (z-score),[24],2.08

# Laid out differently: results already given
binder	measurement	setting	value
B1	glycan array binding signal (z-score)	[1]	0.054
same	glycan array binding signal (z-score)	[2]	-1.42
same	glycan array binding signal (z-score)	[3]	-0.081
same	glycan array binding signal (z-score)	[4]	-0.695
same	glycan array binding signal (z-score)	[5]	-0.701
same	glycan array binding signal (z-score)	Fuc(a1-2)Gal(b1-3)GlcNAc	-0.334
same	glycan array binding signal (z-score)	[6]	0.9
